Data as given in PubChem BioAssay AID686943 (Drosophila RNAi Screening Center, 2013).

Test: 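Fly genes whose loss alters ERK activation after insulin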 (primary screen)
System: Drosophila S2R+ haemocyte-like cells expressing YFP-tagged ERK (Rolled)
Reagents: long dsRNA against Drosophila genes
Conditions: insulin stimulation versus unstimulated cells; dose and duration not given
Measured: 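Antibody staining for doubly phosphorylated ERK divided by ERK-YFP signal, as plate z-scores, in insulin-treated and untreated cells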
Direction: replicate 1, z-score of dpERK with insulin: higher = more active ERK per ERK-YFP after insulin
The deposit covers about 23,000 reagents; below is a random part of those with a known target gene and a result. 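Extra replicates exist only for a retested subset of genes; insulin dose and duration not given; both raised and lowered dpERK matter.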 A plus sign joins genes that one reagent is predicted to hit. Not all columns of the deposit are shown. Reagent sequences are not shown. Not given: the amount of reagent, the time to read-out.

no.	predicted target	dsRNA	replicate 1, z-score of dpERK with insulin
1	ear	DRSC15675	0.84
2	Hnf4	DRSC01032	0.92
3	Hnf4	DRSC03344	-0.98
4	CG15628	DRSC00256	-2.57
5	CG15628	DRSC00463	0.4
6	CG12065	DRSC17798	0.1
7	CG12065	DRSC17799	-0.39
8	Gyc76C + CG42637	DRSC11180	-0.72
9	Sms	DRSC10408	1.14
10	Rpp30	DRSC00320	0.28
11	Bfc	DRSC08623	1.03
12	CG31704	DRSC22118	-1.74
13	CG30110	DRSC05686	-0.65
14	PH4alphaMP	DRSC17031	0.28
15	CG7381	DRSC16238	0.15
16	CG10631	DRSC02081	-0.42
17	CG13786	DRSC02289	1.7
18	Gga	DRSC18260	0.27
19	Dhit	DRSC07411	0.01
20	CG11409	DRSC18579	-0.02
21	CG5849	DRSC15893	0.76
22	Tctp	DRSC15649	-0.16
23	CG4984 + CG4975	DRSC06907	0.06
24	CG4984 + CG4975	DRSC06908	0.24

Looked up above:
CG5849 [DRSC15893], replicate 1, z-score of dpERK with insulin → 0.76
Value for Sms [DRSC10408] in “replicate 1, z-score of dpERK with insulin”: 1.14
